# Results of single-concentration screens

Chains of the proteins cited; added tags and fusions are not shown.
UniProt I6X8D2, whole entry: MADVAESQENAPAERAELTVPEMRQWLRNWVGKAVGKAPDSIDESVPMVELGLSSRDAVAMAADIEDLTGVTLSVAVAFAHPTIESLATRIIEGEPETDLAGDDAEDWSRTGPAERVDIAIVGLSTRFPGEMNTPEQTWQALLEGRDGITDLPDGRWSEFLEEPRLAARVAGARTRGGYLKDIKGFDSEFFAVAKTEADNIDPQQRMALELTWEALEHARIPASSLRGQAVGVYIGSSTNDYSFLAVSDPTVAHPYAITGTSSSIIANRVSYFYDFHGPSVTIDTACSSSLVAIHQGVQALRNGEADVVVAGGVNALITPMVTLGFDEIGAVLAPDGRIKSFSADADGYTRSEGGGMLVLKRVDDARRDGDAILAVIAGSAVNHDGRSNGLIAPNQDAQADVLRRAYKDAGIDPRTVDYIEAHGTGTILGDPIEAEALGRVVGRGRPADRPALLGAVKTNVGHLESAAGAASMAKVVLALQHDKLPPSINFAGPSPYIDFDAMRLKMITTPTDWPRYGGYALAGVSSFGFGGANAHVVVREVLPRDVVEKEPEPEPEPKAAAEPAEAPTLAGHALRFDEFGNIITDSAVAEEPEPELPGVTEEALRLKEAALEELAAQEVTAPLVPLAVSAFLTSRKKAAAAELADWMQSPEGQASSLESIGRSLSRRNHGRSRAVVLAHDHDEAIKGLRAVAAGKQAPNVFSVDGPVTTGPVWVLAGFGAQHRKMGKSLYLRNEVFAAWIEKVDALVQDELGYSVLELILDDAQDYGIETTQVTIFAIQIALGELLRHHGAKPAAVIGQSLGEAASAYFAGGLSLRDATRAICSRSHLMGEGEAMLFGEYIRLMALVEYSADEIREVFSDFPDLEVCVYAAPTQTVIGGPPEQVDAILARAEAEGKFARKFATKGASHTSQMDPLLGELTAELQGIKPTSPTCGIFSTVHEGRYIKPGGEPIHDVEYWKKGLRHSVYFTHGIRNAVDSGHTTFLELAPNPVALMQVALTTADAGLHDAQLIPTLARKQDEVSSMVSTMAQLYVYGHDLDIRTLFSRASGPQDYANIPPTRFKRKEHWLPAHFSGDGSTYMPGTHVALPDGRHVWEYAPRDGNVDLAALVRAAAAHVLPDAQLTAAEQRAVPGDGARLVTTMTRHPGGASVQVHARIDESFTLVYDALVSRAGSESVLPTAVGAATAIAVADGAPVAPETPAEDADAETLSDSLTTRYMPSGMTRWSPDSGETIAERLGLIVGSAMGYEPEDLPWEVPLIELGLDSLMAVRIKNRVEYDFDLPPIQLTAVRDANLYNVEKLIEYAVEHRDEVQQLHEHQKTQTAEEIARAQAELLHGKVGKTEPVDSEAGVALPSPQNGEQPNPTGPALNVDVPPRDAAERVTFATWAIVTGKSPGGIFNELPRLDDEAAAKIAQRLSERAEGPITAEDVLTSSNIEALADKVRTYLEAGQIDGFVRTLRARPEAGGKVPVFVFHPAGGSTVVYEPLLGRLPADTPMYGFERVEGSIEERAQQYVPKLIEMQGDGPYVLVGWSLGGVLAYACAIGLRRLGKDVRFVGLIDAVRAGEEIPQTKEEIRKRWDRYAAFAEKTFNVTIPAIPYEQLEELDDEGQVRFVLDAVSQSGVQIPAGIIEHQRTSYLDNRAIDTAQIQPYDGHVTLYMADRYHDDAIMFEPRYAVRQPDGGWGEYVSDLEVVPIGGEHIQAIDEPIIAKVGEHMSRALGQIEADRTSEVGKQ
UniProt P9WNZ1, whole entry: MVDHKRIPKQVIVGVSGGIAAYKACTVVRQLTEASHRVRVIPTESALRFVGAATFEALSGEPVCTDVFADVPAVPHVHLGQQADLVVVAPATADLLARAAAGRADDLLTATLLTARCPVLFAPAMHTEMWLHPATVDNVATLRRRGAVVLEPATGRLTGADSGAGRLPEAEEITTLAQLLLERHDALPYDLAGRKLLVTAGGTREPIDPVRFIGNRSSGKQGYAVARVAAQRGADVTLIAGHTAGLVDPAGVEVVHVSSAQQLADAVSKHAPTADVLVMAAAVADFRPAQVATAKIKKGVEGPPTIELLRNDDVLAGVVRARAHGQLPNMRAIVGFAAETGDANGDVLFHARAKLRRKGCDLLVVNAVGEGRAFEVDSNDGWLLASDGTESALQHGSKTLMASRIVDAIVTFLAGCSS
UniProt P9WPC5, whole entry: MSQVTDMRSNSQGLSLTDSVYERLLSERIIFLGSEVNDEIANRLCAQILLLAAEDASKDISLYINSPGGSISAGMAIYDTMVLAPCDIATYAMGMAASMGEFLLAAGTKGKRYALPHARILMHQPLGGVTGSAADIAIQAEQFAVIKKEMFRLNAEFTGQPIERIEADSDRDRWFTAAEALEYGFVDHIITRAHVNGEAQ
UniProt P9WPC3, whole entry partner: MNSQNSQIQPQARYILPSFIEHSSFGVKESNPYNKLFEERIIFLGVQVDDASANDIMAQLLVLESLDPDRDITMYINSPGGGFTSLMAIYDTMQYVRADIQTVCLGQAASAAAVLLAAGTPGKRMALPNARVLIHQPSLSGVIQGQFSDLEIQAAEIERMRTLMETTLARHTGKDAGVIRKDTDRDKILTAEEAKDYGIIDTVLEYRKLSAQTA
UniProt P9WFT3, whole entry: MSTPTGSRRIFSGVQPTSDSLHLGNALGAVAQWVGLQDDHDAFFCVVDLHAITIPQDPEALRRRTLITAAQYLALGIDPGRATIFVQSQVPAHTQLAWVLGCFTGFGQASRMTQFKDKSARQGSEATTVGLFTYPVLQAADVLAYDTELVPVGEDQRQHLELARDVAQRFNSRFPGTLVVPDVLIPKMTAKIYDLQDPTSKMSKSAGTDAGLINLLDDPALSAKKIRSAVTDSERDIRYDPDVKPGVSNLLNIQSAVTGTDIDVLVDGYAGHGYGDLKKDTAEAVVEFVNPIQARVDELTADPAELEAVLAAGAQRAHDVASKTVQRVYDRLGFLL

Pks13 thioesterase: 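Polyketide synthase Pks13, Mycobacterium tuberculosis (UniProt I6X8D2). Enzyme assay of the thioesterase domain of polyketide synthase 13; the read-out is not stated. Concentration: 30 µM. The record gives no direction; the compounds picked for IC50 retests had high values, so higher reads as stronger inhibition. About 67,000 compounds were tested under these conditions; 0.46% (about 300) showed 50% or more at least once.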
Toxoplasma: 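Assay of Toxoplasma gondii numbers, read through their beta-galactosidase reporter with a colour substrate. Tested at 10 µM. Higher reads as fewer parasites (inferred from which compounds were picked for retests). About 67,000 compounds were tested under these conditions; 0.38% (about 260) showed 50% or more at least once.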
CoaBC: 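Enzyme assay of CoaBC with a phosphate dye (Biomol Green) read at 650 nm. Target: Coenzyme A biosynthesis protein CoaBC, Mycobacterium tuberculosis (UniProt P9WNZ1). Tested at 30 µM. Higher reads as stronger inhibition, judged from the few compounds that gave an IC50. Most strong results did not repeat in a second test. Size under these conditions: about 67,000 compounds, about 40 of them at 50% or above in at least one test.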
ClpP1P2: 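Protease assay of ClpP1P2, read by the AMC dye that it sets free. Target: ClpP1P2, Mycobacterium tuberculosis (UniProt P9WPC5 and UniProt P9WPC3). Compounds at 50 µM. Direction is inferred from only a few compounds that gave an IC50; most scored high, so higher reads as stronger inhibition. Most other retested compounds had strongly negative values. Of about 69,000 compounds tested this way, about 10 (0.015%) reached 50% or more in at least one test.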
Leishmania in macrophages: 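Cell assay of Leishmania donovani living inside macrophages; the read-out is not stated. Compounds at 30 µM. The record gives no direction; compounds that gave an IC50 in retests scored well above the rest, so higher reads as stronger inhibition. Of about 69,000 compounds tested this way, about 1,000 (1.5%) reached 50% or more in at least one test.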
MtTrpRS: 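Tryptophan-tRNA ligase, Mycobacterium tuberculosis (UniProt P9WFT3). Enzyme assay of tryptophanyl-tRNA synthetase; the read-out is not stated. Concentration: 10 µM. Higher most likely means stronger inhibition; the record gives no direction and few retests gave an IC50. Of about 65,000 compounds tested this way, about 64 (0.098%) reached 50% or more in at least one test.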

Results are given as percent effect. The record does not define 0% and 100%; most values in the screen are far below 50% and negative numbers occur (in some assays of this library far below -100). Compounds were drawn at random from those tested, without regard to their results. A dash means the value is not listed here; it may have been measured.

compound	Pks13 thioesterase	Toxoplasma	CoaBC	ClpP1P2	Leishmania in macrophages	MtTrpRS
O[C@@]1(CNCC2(Cn3ccnc3)CC2)CCCN2CCCC[C@@H]21	-57.67	-	3.929	-12.85	-	0.2987
Cc1ccccc1NC(=O)c1cncc(C2CCNCC2)n1	6.137	-	5.938	-8.906	-	0.2038
CCc1ccc(C2COCCN2C(=O)NCc2cccc(C#N)c2)o1 (centres undefined)	-28.85	2.596	3.415	-4.315	32.92	-1.188
CN(Cc1cc2cc(F)ccc2[nH]1)c1cc(C2CCCNC2)ncn1 (centres undefined)	-22.45	38.81	8.174	-0.5853	78.22	-3.708
OCCNc1nc(NCc2cccnc2)nc2nccnc12	25.05	-3.395	-4.009	-908.9	-5.631	-1.386
Nc1nc2c(c3c1C(=O)NC3=O)CCC2	31.2	-6.991	2.658	-5.424	-5.029	1.492
Cc1ccc(NC(=O)N2CCOC(C)C2)cc1Cl (centres undefined)	-21.42	-8.792	11.83	7.593	22.52	-1.727
Cn1cc(CN2CCc3onc(C(=O)N4CCCC4)c3C2)cn1	-1.489	-	3.03	-11.66	-	-
COc1ccccc1CC(=O)N1CCCC(n2nc(C)nc2C)C1 (centres undefined)	-6.612	10.87	2.625	-9.859	9.474	-6.991
CCn1c(N)nc2cc(C(=O)NCCNc3ncccc3C)cnc21	-1.053	-33.73	-1.139	-2.296	-78.08	5.167
O=C(NCCCN1CCOCC1)C(OC1CCCC1)c1ccccc1 (centres undefined)	-17.41	18.35	1.242	-12.08	42.59	0.4955
CCOC1COC2(CCN(c3ccccn3)CC2)C1 (centres undefined)	-9.703	-	-2.683	6.753	-	-
CCc1n[nH]c(C2CN(Cc3csc(COC)n3)CCO2)n1 (centres undefined)	-8.255	-3.101	5.165	-3.459	6.25	-2.601
CCSc1ccc(C(=O)N2CCCCC2C(=O)NC(C)(C)C)cn1 (centres undefined)	-23.48	0.2472	-4.116	-11.79	-14.82	0.06324
CN(C)c1cc(C(=O)NCCc2nnc(-c3ccco3)[nH]2)ccn1	-38.99	-0.2514	3.914	1.063	-0.8413	-3.284
COc1cccc(Nc2nc(C3CCNCC3)c3sc(C)c(C)n23)c1	-3.435	-	0.7177	-1.193	-	-6.641
CN(Cc1noc2c1CCCC2)C(=O)Cn1c(=O)cnc2ccccc21	-8.436	-7.428	-1.2	-0.5211	6.629	-5.456
O=C(O)c1cc(C2=CCCCC2)cc(S(=O)(=O)NCc2ccccn2)c1	-20.03	-7.145	15.6	3.279	10.39	1.521
Cn1cnnc1CNC(=O)C1CCCN(Cc2ccccc2)C1 (centres undefined)	-13.45	-4.126	2.778	8.134	-5.723	1.144
CN(CCc1noc(C2CC2)n1)C(=O)C1(N2CCCC2)CCCC1	-11.76	-18.54	2.584	-3.142	28.86	2.413
O=C(c1ccc2c(c1)COC2)N1CCN(CC2CC2)CC1	-25.89	-	-5.398	2.77	19.33	-2.754
CC(C(=O)N1CCOCC1)N1CCc2cncnc2C1 (centres undefined)	-6.21	-3.358	4.645	3.068	6.348	-1.341
CN(C)CCOCc1nnc2n1CCN(CC1CC1)CC2.O=C(O)C(F)(F)F.O=C(O)C(F)(F)F	-	-5.565	-	-	11.48	-
COc1ccc(C2CCCN2c2ccc(C#N)cn2)c(OC)c1 (centres undefined)	-6.208	2.264	-4.567	-0.6541	32.37	1.598
NC(=O)CN(C(=O)C1Cc2cc(Cl)ccc2O1)C1CCCC1 (centres undefined)	-17.26	10.01	-2.806	-3.559	-2.157	-2.083
CS(=O)(=O)NC[C@@H]1OC[C@H]2CN(Cc3ccsc3)CC[C@H]21	-39.03	-	-7.901	-10.9	-	15.88
O=C(C1CC1)N1CCC2(CCN2Cc2ccc(F)cc2)C1 (centres undefined)	-15.19	-	1.673	-8.019	-	5.087
CCc1cc(CNC(=O)N2Cc3ccccc3N(C)CC2C)on1 (centres undefined)	-47.41	3.846	-4.069	-2.03	-8.897	0.9723
CC(=O)NC(Cc1c[nH]c2cc(F)ccc12)C(=O)Nc1nncs1 (centres undefined)	-38.45	2.265	-	4.143	7.932	1.715
Cn1cc(CN2CCCN(C(=O)c3sccc3C#N)CC2)cn1	-8.357	-22.38	1.575	-9.402	17.05	-2.751

Some entries from above, unchanged:

With Nc1nc2c(c3c1C(=O)NC3=O)CCC2 the screen gave Pks13 thioesterase: 31.2%; Toxoplasma: -6.991%; CoaBC: 2.658%; ClpP1P2: -5.424%; Leishmania in macrophages: -5.029%; MtTrpRS: 1.492%.
With CCc1ccc(C2COCCN2C(=O)NCc2cccc(C#N)c2)o1 (centres undefined) the screen gave Pks13 thioesterase: -28.85%; Toxoplasma: 2.596%; CoaBC: 3.415%; ClpP1P2: -4.315%; Leishmania in macrophages: 32.92%; MtTrpRS: -1.188%.
With COc1cccc(Nc2nc(C3CCNCC3)c3sc(C)c(C)n23)c1 the screen gave Pks13 thioesterase: -3.435%; CoaBC: 0.7177%; ClpP1P2: -1.193%; MtTrpRS: -6.641%.

The values are deposited in ChEMBL (CHEMBL3988442, “University of Dundee, Small-Polar-MMV Screening Library” (2021)).